No constants are given. Whether binding was seen depends on the method and setting. In cells and extracts the contact can be indirect. Binding can be weak; no strength is given.
Target: N-terminal Kv1.3-TurboID (V5-TurboID-Kv1.3 fusion) (human) (UniProt P22001)
Assay: co-IP; NP40 lysates of N-terminal Kv1.3-TurboID Jurkat T-cells, 1 μg V5 antibody overnight at 4°C, Protein G Dynabeads; western blot for STIM1, CD3E, V5; untransduced Jurkat T-cells as control

Substance	binding
CD3E (from UniProt P07766 23-207)	no binding
STIM1 (from UniProt Q13586 23-685)	binds

Source: paper PMC12989817
